The results in this text go back to paper PMC6362213.

Assay [1] deals with TRAIL-R2/DR5 (human (endogenous in U87MG)) (UniProt O14763). In words: pull-down; same DISC precipitation with biotin-TRAIL and streptavidin-agarose from control (scrambled siRNA) U87MG cells; two endogenous proteins found together in the precipitate; western blot.
For assay [2] the target is unchanged. In words: condition: only after knockdown of PIM2 and PIM3 by siRNA; pull-down; DISC precipitation with biotin-TRAIL (1000 ng/mL, 90 min) and streptavidin-agarose from U87MG cells after knockdown of PIM2 and PIM3 by siRNA (48 h); two endogenous proteins in the precipitate; western blot. For orientation: Immunoblotting shows a protein as a band on a membrane.

Results are given in words; binding and its absence hold for the method and conditions named. Binding seen in cells or lysates may run through a third protein. Some entries that bind do so weakly or less than the wild type.

As for p62/SQSTM1 (from UniProt Q13501 1-440), the binding entry in assay [1] is on record as “binds”; in assay [2], “no binding”.
